Experimental data as given in the supplement of paper PMC8728848.
This is one part of the list.

Key:
Assay in all cases: glycan array binding signal (z-score within array); higher = stronger binding
Settings in all cases: glycan notation: IUPAC condensed, linker removed
[1] = biological target: Fuc(a1-2)Gal
Outline: (§1)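 Columns mapping to the same glycan were averaged after glycan names were converted to IUPAC-condensed notation. The data come from 3228 arrays in the Consortium for Functional Glycomics database, limited to those with an available protein sequence. Binding is reported as a within-array Z-score averaged across arrays of one protein sequence and across linkers.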

[2] = biological target: Fuc(a1-2)Gal(b1-3)GalNAc
Outline: as §1

[3] = biological target: Fuc(a1-2)Gal(b1-3)GalNAc(b1-3)Gal
Outline: as §1

[4] = biological target: Fuc(a1-2)Gal(b1-3)GalNAc(b1-3)Gal(a1-4)Gal(b1-4)Glc
Outline: as §1

[5] = biological target: Fuc(a1-2)Gal(b1-3)GalNAc(b1-3)Gal(b1-4)Glc
Outline: as §1

[6] = biological target: Fuc(a1-2)Gal(b1-3)GalNAc(b1-4)[Neu5Ac(a2-3)]Gal(b1-4)Glc
Outline: as §1

[7] = biological target: Fuc(a1-2)Gal(b1-3)[Fuc(a1-4)]GlcNAc
Outline: as §1

[8] = biological target: Fuc(a1-2)Gal(b1-4)Glc
Outline: as §1

[9] = biological target: Fuc(a1-2)Gal(b1-4)Glc6S
Outline: as §1

[10] = biological target: Fuc(a1-2)Gal(b1-4)GlcNAc
Outline: as §1

[11] = biological target: Fuc(a1-2)Gal(b1-4)GlcNAc(b1-3)Gal(b1-4)GlcNAc
Outline: as §1

[12] = biological target: Fuc(a1-2)Gal(b1-4)GlcNAc(b1-3)Gal(b1-4)GlcNAc(b1-3)Gal(b1-4)GlcNAc
Outline: as §1

[13] = biological target: Fuc(a1-2)Gal(b1-4)GlcNAc6S
Outline: as §1

[14] = biological target: Fuc(a1-2)Gal(b1-4)[Fuc(a1-3)]GalNAc(b1-3)Gal(b1-4)[Fuc(a1-3)]GlcNAc
Outline: as §1

[15] = biological target: Fuc(a1-2)Gal(b1-4)[Fuc(a1-3)]GalNAc(b1-3)Gal(b1-4)[Fuc(a1-3)]GlcNAc(b1-3)Gal(b1-4)[Fuc(a1-3)]GalNAc
Outline: as §1

[16] = biological target: Fuc(a1-2)Gal(b1-4)[Fuc(a1-3)]GlcNAc
Outline: as §1

[17] = biological target: Fuc(a1-2)Gal6S(b1-4)Glc
Outline: as §1

[18] = biological target: Fuc(a1-2)Gal6S(b1-4)Glc6S
Outline: as §1

[19] = biological target: Fuc(a1-2)Gal6S(b1-4)GlcNAc
Outline: as §1

[20] = biological target: Fuc(a1-2)GlcNAc
Outline: as §1

[21] = biological target: Fuc(a1-2)[Gal(a1-3)]Gal
Outline: as §1

[22] = biological target: Fuc(a1-2)[Gal(a1-3)]Gal(b1-3)GlcNAc
Outline: as §1

[23] = biological target: Fuc(a1-2)[Gal(a1-3)]Gal(b1-4)Glc
Outline: as §1

[24] = biological target: Fuc(a1-2)[Gal(a1-3)]Gal(b1-4)GlcNAc
Outline: as §1

[25] = biological target: Fuc(a1-2)[Gal(a1-3)]Gal(b1-4)[Fuc(a1-3)]GlcNAc
Outline: as §1

[26] = biological target: Fuc(a1-2)[Gal(a1-4)]Gal(b1-4)GalNAc
Outline: as §1

[27] = biological target: Fuc(a1-2)[GalNAc(a1-3)]Gal
Outline: as §1

[28] = biological target: Fuc(a1-2)[GalNAc(a1-3)]Gal(b1-3)GlcNAc
Outline: as §1

[29] = biological target: Fuc(a1-2)[GalNAc(a1-3)]Gal(b1-4)Glc
Outline: as §1

[30] = biological target: Fuc(a1-2)[GalNAc(a1-3)]Gal(b1-4)GlcNAc
Outline: as §1

[31] = biological target: Fuc(a1-2)[GalNAc(a1-3)]Gal(b1-4)[Fuc(a1-3)]GlcNAc
Outline: as §1

[32] = biological target: Fuc(a1-2)[GalNAc(a1-4)]Gal(b1-4)GlcNAc
Outline: as §1

[33] = biological target: Fuc(a1-3)GlcNAc
Outline: as §1

[34] = biological target: Fuc(a1-3)[Gal(b1-4)]Glc6S
Outline: as §1

[35] = biological target: Fuc(a1-3)[Gal(b1-4)]GlcNAc
Outline: as §1

[36] = biological target: Fuc(a1-3)[Gal(b1-4)]GlcNAc(b1-3)Gal(b1-3)[Fuc(a1-4)]GlcNAc
Outline: as §1

[37] = biological target: Fuc(a1-3)[Gal(b1-4)]GlcNAc(b1-4)Gal(b1-4)[Fuc(a1-3)]GlcNAc
Outline: as §1

B1: Tim-4 (Mus musculus), Q6U7R4 (protein)
chain: MSKGLLLLWLVTELWWLYLTPAASEDTIIGFLGQPVTLPCHYLSWSQSRNSMCWGKGSCPNSKCNAELLRTDGTRIISRKSTKYTLLGKVQFGEVSLTISNTNRGDSGVYCCRIEVPGWFNDVKKNVRLELRRATTTKKPTTTTRPTTTPYVTTTTPELLPTTVMTTSVLPTTTPPQTLATTAFSTAVTTCPSTTPGSFSQETTKGSAFTTESETLPASNHSQRSMMTISTDIAVLRPTGSNPGILPSTSQLTTQKTTLTTSESLQKTTKSHQINSRQTILIIACCVGFVLMVLLFLAFLLRGKVTGANCLQRHKRPDNTEDSDSVLNDMSHGRDDEDGIFTL
glycan array binding signal (z-score) [1]: 0.432 | glycan array binding signal (z-score) [2]: -0.114 | glycan array binding signal (z-score) [3]: 0.408 | glycan array binding signal (z-score) [4]: 0.044 | glycan array binding signal (z-score) [5]: -0.304 | glycan array binding signal (z-score) [6]: -0.596 | glycan array binding signal (z-score) [7]: -0.129 | glycan array binding signal (z-score) [8]: -0.285 | glycan array binding signal (z-score) [9]: -0.704 | glycan array binding signal (z-score) [10]: -0.04 | glycan array binding signal (z-score) [11]: -0.92 | glycan array binding signal (z-score) [12]: -0.337 | glycan array binding signal (z-score) [13]: -0.318 | glycan array binding signal (z-score) [14]: -0.501 | glycan array binding signal (z-score) [15]: 0.502 | glycan array binding signal (z-score) [16]: -0.17 | glycan array binding signal (z-score) [17]: -0.217 | glycan array binding signal (z-score) [18]: -0.345 | glycan array binding signal (z-score) [19]: -0.749 | glycan array binding signal (z-score) [20]: -0.042 | glycan array binding signal (z-score) [21]: 0.259 | glycan array binding signal (z-score) [22]: 0.285 | glycan array binding signal (z-score) [23]: -0.353 | glycan array binding signal (z-score) [24]: 0.043 | glycan array binding signal (z-score) [25]: -0.055 | glycan array binding signal (z-score) [26]: 0.022 | glycan array binding signal (z-score) [27]: -0.169 | glycan array binding signal (z-score) [28]: -0.402 | glycan array binding signal (z-score) [29]: -0.344 | glycan array binding signal (z-score) [30]: -0.326 | glycan array binding signal (z-score) [31]: 0.089 | glycan array binding signal (z-score) [32]: -0.22 | glycan array binding signal (z-score) [33]: 0 | glycan array binding signal (z-score) [34]: 0.314 | glycan array binding signal (z-score) [35]: -0.399 | glycan array binding signal (z-score) [36]: 0.006 | glycan array binding signal (z-score) [37]: -0.188
